Our source for the binding values is article PMC10556770.

This assay addresses T1, FLAG-tagged Sentrin/SUMO-specific protease 1 (SENP1) (UniProt Q9P0U3).
T1 sequence: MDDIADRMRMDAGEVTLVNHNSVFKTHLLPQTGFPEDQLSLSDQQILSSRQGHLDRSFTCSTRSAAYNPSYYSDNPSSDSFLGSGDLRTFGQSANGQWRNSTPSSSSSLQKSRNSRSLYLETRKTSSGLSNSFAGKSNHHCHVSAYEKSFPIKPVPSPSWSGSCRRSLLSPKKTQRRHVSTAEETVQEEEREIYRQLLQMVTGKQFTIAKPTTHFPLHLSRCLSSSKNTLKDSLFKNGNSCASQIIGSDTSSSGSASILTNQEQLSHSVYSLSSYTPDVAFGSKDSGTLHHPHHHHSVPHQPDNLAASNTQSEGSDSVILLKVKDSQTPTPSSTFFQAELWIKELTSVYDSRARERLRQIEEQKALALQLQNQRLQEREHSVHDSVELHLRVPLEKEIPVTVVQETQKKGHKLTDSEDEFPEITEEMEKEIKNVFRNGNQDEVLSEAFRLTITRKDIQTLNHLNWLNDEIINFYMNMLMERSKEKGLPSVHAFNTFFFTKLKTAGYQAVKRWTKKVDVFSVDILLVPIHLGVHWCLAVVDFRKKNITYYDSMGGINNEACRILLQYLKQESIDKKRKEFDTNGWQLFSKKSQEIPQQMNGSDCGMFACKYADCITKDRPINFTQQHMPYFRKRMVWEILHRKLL
The assay is described as follows: co-IP; HEK-293T cells overexpressing HA-KEAP1-WT and FLAG-SENP1; IP with anti-FLAG, WB of KEAP1 and SENP1.

Results are given in words; binding and its absence hold for the method and conditions named. Binding seen in cells or lysates may run through a third protein. Some entries that bind do so weakly or less than the wild type. Tags and fused reporters may be left off the sequences shown.

As to “HA-tagged KEAP1 (Kelch-like ECH-associated protein 1), WT (from UniProt Q14145 1-624)”, the binding entry is “binds”.
